Measured values reported in patent publication EP4527386A1, “ANTI-CANCER PHARMACEUTICAL COMPOSITION COMPRISING REGORAFENIB” (Eberhard-Karls-Universität Tübingen Universitätsklinikum, priority 2023, dated 2025).
At least one structure is not confirmed: it was looked up by name or label, or the drawing left a doubt.

System: glioma cell lines
Test: clonogenic survival assay
Format: cell-based
Conditions: combination with regorafenib vs regorafenib monotherapy

CC1(C)CCC(CN2CCN(c3ccc(C(=O)NS(=O)(=O)c4ccc(NCC5CCOCC5)c([N+](=O)[O-])c4)c(Oc4cnc5[nH]ccc5c4)c3)CC2)=C(c2ccc(Cl)cc2)C1 [venetoclax]
number of clones in clonogenic survival assays, combination treatment compared with regorafenib monotherapy: significantly reduced numbers of clones
